Reference: patent US20250325553A1, “METHODS OF TREATING CANCER” (FOGHORN THERAPEUTICS INC., priority 2022, published 2025)
At least one read-out could not be matched to a standard name with certainty.

Assay: Population PK model of orally administered Compound A patient data
Type: in vivo, human
Conditions: tested a priori in the model
Description: A population PK model based on orally administered Compound A dosing data in a total of 10 patients with metastatic uveal melanoma (UM) and advanced hematologic malignancies (e.g., acute myeloid leukemia (AML)) was performed.
Nonlinear mixed-effects models were fitted to concentration vs. time data of FHD-286. Various compartmental models with linear elimination (1-, 2- and 3-compartment), absorption models, structures of omega on clearances, volumes and absorption parameters (diagonal and block) were developed to assess the PK of Compound A.
Overall, a two-compartment model with linear elimination, a zero-order oral absorption, and a lag time of absorption adequately characterized the concentration-time profiles of Compound A.
Exploratory analysis of covariate effects was performed with appropriate plots presenting relationships between the ETAs (e.g., values reflecting the difference between and individual's parameter value and that of the population) of PK parameters to identify any remaining covariate trends. […] Therefore a “Multiple Dose Effect” on CL was included in the model to account for this change over time.
No other covariates were included as part of the model.

In the case of COC[C@H](NC(=O)c1ccn(S(C)(=O)=O)c1)C(=O)Nc1nc(-c2cccc(N3C[C@@H](C)O[C@@H](C)C3)n2)cs1 [Compound A, N-(1-((4-(6-(2,6-dimethylmorpholino)pyridin-2-yl)thiazol-2-yl)amino)-3-methoxy-1-oxopropan-2-yl)-1-(methylsulfonyl)-1H-pyrrole-3-carboxamide], the “Time-varying food effect on the relative bioavailability” value was “not significant”.
